For assay [1], the target named is T1, full-length human recombinant NOX4 protein (human) (UniProt Q9NPH5).
T1 sequence: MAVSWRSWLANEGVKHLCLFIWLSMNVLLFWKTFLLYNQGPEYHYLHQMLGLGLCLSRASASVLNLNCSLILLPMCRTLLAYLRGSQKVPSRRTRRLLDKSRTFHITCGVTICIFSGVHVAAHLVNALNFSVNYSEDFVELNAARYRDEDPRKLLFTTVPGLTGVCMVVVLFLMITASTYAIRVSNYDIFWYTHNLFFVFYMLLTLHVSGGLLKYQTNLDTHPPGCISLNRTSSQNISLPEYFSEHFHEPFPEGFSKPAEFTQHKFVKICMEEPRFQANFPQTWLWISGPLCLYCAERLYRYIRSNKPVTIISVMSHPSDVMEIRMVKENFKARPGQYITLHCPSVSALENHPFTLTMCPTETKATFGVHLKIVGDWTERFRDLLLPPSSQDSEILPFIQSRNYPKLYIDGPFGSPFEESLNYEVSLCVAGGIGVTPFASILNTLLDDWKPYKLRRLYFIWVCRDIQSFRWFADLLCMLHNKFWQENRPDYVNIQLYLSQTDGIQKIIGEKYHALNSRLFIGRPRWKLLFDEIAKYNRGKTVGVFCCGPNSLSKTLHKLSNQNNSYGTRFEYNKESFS
Briefly: SPR; Biacore, CM5 chip; NOX4 monoclonal antibody conjugated to the chip, full-length human NOX4 bound to the antibody, RhoA flowed at 0, 22.5, 45, 90, 180 and 360 μg/mL; regeneration with 10 mmol/L glycine pH 2.5; both purified. On the technique in general: In SPR one partner is held on a chip, and binding of the other changes the refractive index at the surface.

Sequences of proteins named here, by UniProt entry; tags and fusion partners are left off.
UniProt P61589: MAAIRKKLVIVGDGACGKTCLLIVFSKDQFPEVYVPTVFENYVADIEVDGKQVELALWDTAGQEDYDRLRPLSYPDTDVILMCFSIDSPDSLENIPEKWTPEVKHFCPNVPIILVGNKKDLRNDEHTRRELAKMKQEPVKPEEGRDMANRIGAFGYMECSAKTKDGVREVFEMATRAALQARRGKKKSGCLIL
UniProt P61586: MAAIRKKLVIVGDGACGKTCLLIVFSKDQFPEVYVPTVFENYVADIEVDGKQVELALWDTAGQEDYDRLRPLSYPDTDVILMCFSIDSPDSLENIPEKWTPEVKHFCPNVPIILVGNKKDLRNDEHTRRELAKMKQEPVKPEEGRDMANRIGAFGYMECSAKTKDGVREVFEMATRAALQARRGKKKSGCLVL

The target of assay [2] is RhoA (rat (endogenous in HSC-T6)) (UniProt P61589). Briefly: co-IP; lysate of NOX4^(GV 358Lv) HSC-T6 cells; 1 μg antibody overnight at 4°C, protein A agarose beads 4 h at 4°C, three washes with lysis buffer, western blot.

The source of these data is article PMC6510285.

These are yes or no findings as the source states them, for the method shown. For part of these data: Binding seen in cells or lysates may run through a third protein.

As for “full-length human recombinant RhoA protein (from UniProt P61586 1-193)”, the binding entry in assay [1] is reported as “no binding (tested: 360 μg/mL)”.

B1: p67^phox (protein, UniProt A7E3N2 1-527)
chain: MSLAEAIRLWNEGVQAADKKDWKGALEAFSEVQDPHSRICFNIGCMYTILDNLQEAEQAFTKSINRDKHLAVAYFQRGMLYYSMEKYRPASVGRKAALLFLGSYNLVARIIVGYPLSPGKVLYNIALMHAKKEEWKKAEEQLALATNMKSEPRHSKIDKAMESIWKRCPTSHLPLDPPQVTMALWFEEGGVGKRSVVASVVHQDNFSGFAPLQPQSAEPPPRPKTPEIFRALEGEAHRVLFGFVPETPEELQVMPGNIVFVLKKGSDNWATVMFNGQKGLVPCNYLEPVELRIHPQSQPQEDTSLESDIPPPPNSSPPERLQLSPGWCQQLGPLRCPPFLLHQEVKRSVPMPYMLKVHYKYTVVMETQLGLPYSQLRNMVSKKLELLPEHTKLSYQRRDSPELLLLSEESMKDAWAQVKNYCLTLWCEHTVGDQGFVDEPKEKENSDADNRTTEPQPKEGTQVVAIFSYDATQPEDLEFVEGDVILVLSHVNEEWLEGECKGKIGIFPKAFVEGCAAKNLEGTPREV
As for B1, the binding result in assay [2] is “no binding”.

B2: NOX4 in NOX4^(GV 358Lv) HSCs (protein, UniProt Q924V1 1-578)
chain: MALSWRSWLANEGVKHLCLLVWLSLNVLLFWKTFLLYNQGPEYYYIHQMLGLGLCLSRASASVLNLNCSLILLPMCRTVLAYLRGSQKVPSRRTRRLLDKSKTLHITCGITICIFSGVHVAAHLVNALNFSVNYSEHFLALNAARYQNEDPRKLLFTTVPGLTGVCMVVVLFLMVTASTYAIRVSNYDIFWYTHNLFFVFYMLLLLHVSGGLLKYQTNLDTHPPGCISLNRTPSQNMSIADYVSEHFHGSLPGGFSKLEDHYQKTLVKICLEEPKFQAHFPQTWIWISGPLCLYCAERLYRCIRSNKPVTIISVINHPSDVMELRMIKENFKARPGQYIILHCPSVSALENHPFTLTMCPTETKATFGVHFKVVGDWTERFRDLLLPPSSQDSEILPFIQSRNYPKLYIDGPFGSPFEESLNYEVSLCVAGGIGVTPFASILNTLLDDWKPYKLRRLYFIWVCRDIQSFQWFADLLYVLHNKFWQENRPDFVNIQLYLSQTDGIQKIIGEKYHTLNSRLFIGRPRWKLLFDEIAKCNRGKTVGVFCCGPSSISKTLHNLSNRNNSYGTKFEYNKESFS
Take B2: the binding entry in assay [2] is on record as “no binding”.
